Results reported in publication PMC10163288.
The list shows a part of the results.

B1: il10ra_site1_sap_14_mot_HHH_b2_05207_000000229_0001_1_19_H_._HHH_b1_00008_af2_0001_0000200016_0000001_0_0001 (protein)
chain: SSSSDEEKEVALLVARASAKAARLGDHETERKLFELLVRAYAKNDPELFEEAEELAREILGSSSS
B2: il10ra_site1_sap_28_mot_HHH_b1_01513_af2_000000021_0001_1_16_H_._HHH_b1_03264_0001_0000300020_0000001_0_0001_af2pred_0001 (protein)
chain: SSSSDEEEKNLEAALRLAEQAYENGNPEHAKRLLRSALRLAERLNDEELFERLQELLEELSSSSS
B3: il10ra_site1_sap_26_mot_HHH_b1_03333_000000091_0001_1_17_H_._HHH_b2_04966_0001_0000200016_0000001_0_0001 (protein)
chain: SSSSSQEEELIEFNKKSLEQVLEYGNERIVRLLLEAIKLLAERTNDEELKEFVEQVERELSSSSS
B4: il10ra_site1_sap_14_mot_HHH_b1_02062_000000185_0001_1_20_H_._HHH_b2_07342_0001_0000400030_0000001_0_0001 (protein)
chain: SLMEAVWELAKKADSPELLELLALLIHAIFRGDEELVERVLELLEQAREEGDPRYLEEAEELLRK
B5: il10ra_site1_sap_16_mot_c338a8cd76c26928f5bff51e2e01ebb4_0001_000000083_0001_17_32_H_._HHH_b1_07556_af2_0001_0000300011_0000001_0_0001 (protein)
chain: SSSSSDLREAARRAQELIEELIQRGDQEALQELWRLFVELARTGDPELAEELREFLEEYSSSSSS
B6: il10ra_site1_normal_mot_HHH_b2_00475_000000107_0001_44_57_H_._HHH_b1_04179_0001_0000100010_0000001_0 (protein)
chain: SSSSDEEERRIIQLAFRATRLAARGNPEEARKVIEEAEELAKELGDEELEEYLRILKHFVNSSSS
B7: il10ra_site1_normal_mot_7f9b3cf633cfd27bca007b62ade1be3b_0001_1_000000138_0001_17_32_H_._HHH_b2_04541_0002_0000300021_0000001_0_af2pred_0001 (protein)
chain: SSSSDRERSLELLLRAAERLLEEGDEHRLRAVLREAKILAKILGDEEVLRRLEELEELLNSSSSS
B8: il10ra_site1_normal_mot_HHH_b1_04693_000000238_0001_19_36_H_._HHH_b1_03982_0001_0000100014_0000001_0 (protein)
chain: SSSSQEAYEIVERAIKEAIEALRNGNPEEAREIVEEAIRLIEELGNDSLVATLEVLLRLINSSSS
B9: il10ra_site1_sap_15_mot_HHH_b1_06816_000000239_0001_1_19_H_._HHH_b1_05776_af2_0001_0000100010_0000001_0_0001_af2pred_dldesign_0_af2pred (protein)
chain: SSSSSPIVEEAKKLFEEAKKLLEEGKPEEAQKKLEEIVELAKKHECIEVAKIANELLKLGSSSSS
B10: il10ra_site1_sap_19_mot_HHH_b1_07743_af2_000000164_0001_42_55_H_._HHH_b1_07378_af2_0001_0000500019_0000001_0_0001 (protein)
chain: SSSDEEYNERVVRLSLEAFHLALRGNPEEARRVLEEALELAEEGNNERLFEQIEDLLETLGSSSS
B11: il10ra_site1_normal_mot_HHH_b2_06767_000000020_0001_41_56_H_._HHH_b2_06012_0001_0000200016_0000002_0_af2pred_0001 (protein)
chain: SSSSSVHEAAQLLLRVARALKEGDEELLEELRKELEELLKKLDDERARLAVRAALAAIKNFSSSS
B12: il10ra_site1_sap_25_mot_HHH_b2_01235_000000294_0001_1_18_H_._HHH_b2_00232_0001_0000100011_0000001_0_0001_af2pred_dldesign_0_af2pred (protein)
chain: SSSSSDEEKRKEVEALLEEARTLTDGEAFKKALTKAIELAAELGDEELQQRILEVNRSYISSSSS
B13: il10ra_site1_sap_24_mot_HHH_b1_00999_000000080_0001_41_55_H_._HHH_b1_05694_af2_0001_0000300017_0000001_0_0001_af2pred_dldesign_0_af2pred (protein)
chain: SSSSDPQRVVELIHEANRLVDEGRLDEAERLLEEALRLARAADDAELAAAVEKALAFVRSLSSSS
B14: il10ra_site1_sap_19_mot_65b8060e20531850bca9f2e11f97d954_0001_af2_000000137_0001_17_31_H_._HHH_b1_04841_0001_0000400042_0000001_1_0001 (protein)
chain: SSSSSSDELEELLEEAKELLERGDPREANKVLQKAVRLAHQNSDEETLQELWRLALESSSSSSSS
B15: il10ra_site1_sap_17_mot_HHH_b2_02934_af2_000000003_0001_43_57_H_._HHH_b1_01533_0001_0000300012_0000001_0_0001 (protein)
chain: SSSSDELTREVYELSRKAVELDSDGNEEEARKVIKEAEEIAEEINNPLLEHQLRFLEEILNSSSS
B16: il10ra_site1_sap_17_mot_HHH_b2_05972_af2_000000208_0001_1_16_H_._HHH_b2_02653_af2_0001_0000300007_0000001_0_0001_af2pred_0001 (protein)
chain: SSSSSSEAFREILELIREALEIDDPEEARELIEQARELAEENNDELLRRLIELVERELNSSSSSS
B17: il10ra_site1_sap_17_mot_HHH_b1_06914_000000280_0001_1_18_H_._HHH_b2_08155_0001_0000100009_0000001_0_0001 (protein)
chain: SSSSDEANERVWELLREALHIDDPEEAREVVEEAAEIAEERNNRVLLHNIRFLLRQLEKGSSSSS
B18: il10ra_site1_sap_25_mot_HHH_b2_05761_af2_000000185_0001_1_18_H_._HHH_b1_05595_af2_0001_0000200006_0000001_0_0001 (protein)
chain: SSSSDEDERYVELSLRFAEWLLKEGDPEAAKRILEAAREIAERANNEELREELEELLEKIGSSSS

These binders were tested against il10ra, Q13651 (assay: yeast display titration).

Binder | apparent Kd
B1 | inactive: no binding seen
B2 | inactive: no binding seen
B3 | inactive: no binding seen
B4 | inactive: no binding seen
B5 | inactive: no binding seen
B6 | inactive: no binding seen
B7 | inactive: no binding seen
B8 | inactive: no binding seen
B9 | inactive: no binding seen
B10 | inactive: no binding seen
B11 | inactive: no binding seen
B12 | inactive: no binding seen
B13 | inactive: no binding seen
B14 | inactive: no binding seen
B15 | inactive: no binding seen
B16 | inactive: no binding seen
B17 | inactive: no binding seen
B18 | inactive: no binding seen

Retrieved one by one from above, 2 records:
Binder | apparent Kd
B16 | inactive: no binding seen
B15 | inactive: no binding seen
